Where a name gives a salt, the structure may show the parent alone. The list shows a part of the results. Most entries show no effect beyond the scatter of the controls.

Settings in all cases: 5 µM; treatment: days 7-14 after plating, readout day 21
The test system of assay [1] is hPSC-derived cortical neurons (WA09). As to the kind of experiment: nucleus area z-score vs screen plate; higher = larger nuclei (more mature).
The test system is the same in assay [2]. As to the kind of experiment: total neurite length per nucleus (MAP2) z-score; higher = more neurite growth.
The test system is the same in assay [3]. Kind of assay: nucleus roundness z-score vs screen plate; higher = rounder nuclei (more mature).
For assay [4] the test system is unchanged. As to the kind of experiment: KCl-induced FOS+/EGR-1+ double-positive nuclei fraction z-score (KCl minus unstimulated); higher = stronger activity-induced IEG response.

`C[C@H]1CNCCc2ccc(Cl)cc21` [Lorcaserin HCl]: in assay [1], the nucleus area z-score came out at 0.595. Also, the “total neurite length per nucleus (z-score)” value in assay [2] worked out at 0.698. This compound also came in with a nucleus roundness z-score in assay [3] of 0.32. Further, in assay [4], the “KCl-induced FOS+/EGR-1+ double-positive nuclei fraction z-score” value worked out at 1.67.

In the case of `C[C@@H]1[C@H](O)[C@@H](C)/C=C/C=C/CC/C=C/C=C/C=C/C=C/[C@H](O[C@H]2O[C@@H](C)[C@H](O)[C@@H](N)[C@H]2O)C[C@@H]2O[C@](O)(C[C@@H](O)[C@H](O)CC[C@@H](O)C[C@@H](O)C[C@@H](O)CC(=O)O[C@H]1C)C[C@H](O)[C@H]2C(=O)O` [Nystatin (Fungicidin)], in assay [1], the nucleus area z-score came out at 0.0278. The “total neurite length per nucleus (z-score)” value in assay [2] is -0.194. In assay [3], this compound yielded a nucleus roundness z-score of 0.163. For the same compound, the “KCl-induced FOS+/EGR-1+ double-positive nuclei fraction z-score” value in assay [4] is -0.278.

With `CNCC(O)c1ccc(O)cc1` (stereo not drawn) [Synephrine], the nucleus area z-score in assay [1] was -0.0238. Besides, the “total neurite length per nucleus (z-score)” value in assay [2] is -0.331. The same compound returned a nucleus roundness z-score in assay [3] of -0.0708. The “KCl-induced FOS+/EGR-1+ double-positive nuclei fraction z-score” value in assay [4] was found to be 0.718.

`N=C(N)NN` [Aminoguanidine hydrochloride]: in assay [1], the nucleus area z-score came out at 0.19. Also, in assay [2], the “total neurite length per nucleus (z-score)” value is -0.198. Further, in assay [3], the nucleus roundness z-score was -0.329. Besides, the “KCl-induced FOS+/EGR-1+ double-positive nuclei fraction z-score” value in assay [4] was 1.03.

Consider `CCNC(=O)C[C@@H]1N=C(c2ccc(Cl)cc2)c2cc(OC)ccc2-n2c(C)nnc21`, for which, in assay [1], the nucleus area z-score was -5.09. The “total neurite length per nucleus (z-score)” value in assay [2] is -2.4. For the same compound, the nucleus roundness z-score in assay [3] was -5.92. The “KCl-induced FOS+/EGR-1+ double-positive nuclei fraction z-score” value in assay [4] was -0.945.

Take `COc1ccc(CN2CCNCC2)c(OC)c1OC` [Trimetazidine dihydrochloride]: the nucleus area z-score in assay [1] is 0.669. The “total neurite length per nucleus (z-score)” value in assay [2] was found to be 0.0325. In assay [3], this compound had a nucleus roundness z-score of 0.0739. Besides, the “KCl-induced FOS+/EGR-1+ double-positive nuclei fraction z-score” value in assay [4] was determined as 2.04.

Take `NCCc1ccc(S(=O)(=O)F)cc1`: the nucleus area z-score in assay [1] was determined as 0.206. Also, the “total neurite length per nucleus (z-score)” value in assay [2] is -0.482. This compound registered a nucleus roundness z-score in assay [3] of -0.93. Moreover, the “KCl-induced FOS+/EGR-1+ double-positive nuclei fraction z-score” value in assay [4] is -0.000635.

As to `C=CC[C@]1(O)CC[C@H]2[C@@H]3CCC4=CC(=O)CCC4=C3C=C[C@@]21C` [Altrenogest], in assay [1], the nucleus area z-score was -0.36. Further, the “total neurite length per nucleus (z-score)” value in assay [2] is -0.183. The same compound returned a nucleus roundness z-score in assay [3] of -0.484. Moreover, in assay [4], the “KCl-induced FOS+/EGR-1+ double-positive nuclei fraction z-score” value is -0.541.

In turn, `c1ccc([C@@H]2C[C@H]2NC2CCNCC2)cc1` displayed a nucleus area z-score in assay [1] of 1.82. Moreover, the “total neurite length per nucleus (z-score)” value in assay [2] was determined as 1.04. Moreover, in assay [3], the nucleus roundness z-score amounted to 1.19. Also, the “KCl-induced FOS+/EGR-1+ double-positive nuclei fraction z-score” value in assay [4] worked out at 3.29.

Compound `CC(C)(C)c1cc(C=C(C#N)C#N)cc(C(C)(C)C)c1O` [Tyrphostin 9] showed a nucleus area z-score in assay [1] of 1.04. In addition, the “total neurite length per nucleus (z-score)” value in assay [2] amounted to 0.796. For the same compound, the nucleus roundness z-score in assay [3] stood at 0.474. Further, the “KCl-induced FOS+/EGR-1+ double-positive nuclei fraction z-score” value in assay [4] was -0.293.

As to `CN(C)CCc1ccc(O)cc1` [Hordenine], the nucleus area z-score in assay [1] was found to be 0.154. The “total neurite length per nucleus (z-score)” value in assay [2] is -0.041. The nucleus roundness z-score in assay [3] was -0.711. The “KCl-induced FOS+/EGR-1+ double-positive nuclei fraction z-score” value in assay [4] is -0.435.

`C=CCN1CC[C@]23c4c5ccc(O)c4O[C@H]2C(=O)CC[C@@]3(O)[C@H]1C5` [Naloxone HCl] showed a nucleus area z-score in assay [1] of 0.104. Further, in assay [2], the “total neurite length per nucleus (z-score)” value was found to be 0.157. In addition, in assay [3], the nucleus roundness z-score is 0.864. The “KCl-induced FOS+/EGR-1+ double-positive nuclei fraction z-score” value in assay [4] was 0.342.

On to `CCC(COC(=O)c1cc(OC)c(OC)c(OC)c1)(c1ccccc1)N(C)C` (stereo not drawn) [Trimebutine], for which, in assay [1], the nucleus area z-score was -0.00116. In addition, in assay [2], the “total neurite length per nucleus (z-score)” value came out at 0.709. This compound also showed a nucleus roundness z-score in assay [3] of 0.00509. Besides, in assay [4], the “KCl-induced FOS+/EGR-1+ double-positive nuclei fraction z-score” value turned out to be 0.378.

Take `C[C@]12CC[C@H](O)CC1=CC[C@@H]1[C@@H]2CC[C@]2(C)C(=O)CC[C@@H]12` [Dehydroepiandrosterone (DHEA)]: the nucleus area z-score in assay [1] was -0.411. Further, the “total neurite length per nucleus (z-score)” value in assay [2] amounted to 0.832. Further, the nucleus roundness z-score in assay [3] was found to be 0.366. The “KCl-induced FOS+/EGR-1+ double-positive nuclei fraction z-score” value in assay [4] amounted to 0.833.

For `Cc1cc(O)ccc1Cl` [Chlorocresol], the nucleus area z-score in assay [1] amounted to 1.53. Besides, the “total neurite length per nucleus (z-score)” value in assay [2] is -0.788. For the same compound, the nucleus roundness z-score in assay [3] was -1.66. For the same compound, the “KCl-induced FOS+/EGR-1+ double-positive nuclei fraction z-score” value in assay [4] was determined as 0.249.

As for `CCC1(c2ccc(N)cc2)CCC(=O)NC1=O` (stereo not drawn) [Aminoglutethimide], in assay [1], the nucleus area z-score was 1.03. The “total neurite length per nucleus (z-score)” value in assay [2] stood at 0.15. Also, in assay [3], the nucleus roundness z-score was 0.159. Moreover, the “KCl-induced FOS+/EGR-1+ double-positive nuclei fraction z-score” value in assay [4] was 2.03.

`O=C(O[C@H]1C[C@H]2CC[C@@H](C1)[N+]21CCCC1)C(O)(c1ccccc1)c1ccccc1` [Trospium chloride] yielded a nucleus area z-score in assay [1] of 1.37. Besides, the “total neurite length per nucleus (z-score)” value in assay [2] is -0.168. The nucleus roundness z-score in assay [3] was -0.518. In addition, the “KCl-induced FOS+/EGR-1+ double-positive nuclei fraction z-score” value in assay [4] was -0.439.

In turn, `C[C@](O)(COc1ccc(C#N)cc1)C(=O)Nc1ccc(C#N)c(C(F)(F)F)c1` yielded a nucleus area z-score in assay [1] of 0.692. Moreover, in assay [2], the “total neurite length per nucleus (z-score)” value was -0.0646. This compound also gave a nucleus roundness z-score in assay [3] of 0.00021. Moreover, in assay [4], the “KCl-induced FOS+/EGR-1+ double-positive nuclei fraction z-score” value came out at 0.817.

Turning to `O=C(O)CNC(=O)c1c(O)c2ccccc2n(Cc2ccccc2)c1=O`, the nucleus area z-score in assay [1] was -0.251. Also, in assay [2], the “total neurite length per nucleus (z-score)” value turned out to be 1.2. This compound gave a nucleus roundness z-score in assay [3] of 0.374. Further, the “KCl-induced FOS+/EGR-1+ double-positive nuclei fraction z-score” value in assay [4] worked out at 0.794.

In the case of `O=C(O[C@H]1C[N+]2(CCCOc3ccccc3)CCC1CC2)C(O)(c1cccs1)c1cccs1` [Aclidinium Bromide], the nucleus area z-score in assay [1] was 0.0195. Also, the “total neurite length per nucleus (z-score)” value in assay [2] amounted to 0.618. In assay [3], this compound had a nucleus roundness z-score of 0.782. Moreover, the “KCl-induced FOS+/EGR-1+ double-positive nuclei fraction z-score” value in assay [4] is -0.0694.

For `O=C1CCC[C@@H]2[C@H]3CCCN4CCC[C@@H](CN12)[C@@H]34` [(+)-Matrine], the nucleus area z-score in assay [1] turned out to be 0.335. For the same compound, the “total neurite length per nucleus (z-score)” value in assay [2] turned out to be 0.704. The nucleus roundness z-score in assay [3] came out at 0.398. In addition, in assay [4], the “KCl-induced FOS+/EGR-1+ double-positive nuclei fraction z-score” value was -0.451.

As for `C/C(O)=C(\C#N)C(=O)Nc1cc(Br)ccc1Br`, the nucleus area z-score in assay [1] was determined as 0.513. For the same compound, in assay [2], the “total neurite length per nucleus (z-score)” value was found to be 0.694. Moreover, the nucleus roundness z-score in assay [3] came to 0.274. Also, in assay [4], the “KCl-induced FOS+/EGR-1+ double-positive nuclei fraction z-score” value was 3.29.

Consider `COc1cc2c(cc1OC)[C@@]13CCN4CC5=CCO[C@H]6CC(=O)N2[C@H]1[C@H]6[C@H]5C[C@H]43` [Brucine sulfate salt hydrate], for which the nucleus area z-score in assay [1] is -3.56. In addition, the “total neurite length per nucleus (z-score)” value in assay [2] is -0.681. In assay [3], this compound registered a nucleus roundness z-score of -0.48. In addition, the “KCl-induced FOS+/EGR-1+ double-positive nuclei fraction z-score” value in assay [4] was -0.271.

With `C[N+]1(C)CCCC(OC(=O)C(O)(c2ccccc2)c2ccccc2)C1` (stereo not drawn) [Mepenzolate Bromide], the nucleus area z-score in assay [1] amounted to 1.61. Moreover, the “total neurite length per nucleus (z-score)” value in assay [2] is -0.747. For the same compound, the nucleus roundness z-score in assay [3] was 0.289. Moreover, the “KCl-induced FOS+/EGR-1+ double-positive nuclei fraction z-score” value in assay [4] is 0.595.

As for `COc1cc(OC)c(OC)cc1C=O` [Asaraldehyde], the nucleus area z-score in assay [1] was determined as 0.921. Further, the “total neurite length per nucleus (z-score)” value in assay [2] was 0.852. Also, in assay [3], the nucleus roundness z-score was -0.754. Besides, the “KCl-induced FOS+/EGR-1+ double-positive nuclei fraction z-score” value in assay [4] is -0.646.

As to `COC1=C[C@@H]2[C@@H]3Cc4ccc(OC)c(O)c4[C@]2(CCN3C)CC1=O` [Sinomenine], the nucleus area z-score in assay [1] is -0.158. The “total neurite length per nucleus (z-score)” value in assay [2] was -0.108. This compound also had a nucleus roundness z-score in assay [3] of 0.541. Besides, the “KCl-induced FOS+/EGR-1+ double-positive nuclei fraction z-score” value in assay [4] is 0.78.

In assay [1], `O=C(O)c1nn(Cc2ccc(Cl)cc2Cl)c2ccccc12` [Lonidamine] gave a nucleus area z-score of 2.9. Moreover, the “total neurite length per nucleus (z-score)” value in assay [2] is -0.0807. In assay [3], this compound gave a nucleus roundness z-score of -0.108. Moreover, the “KCl-induced FOS+/EGR-1+ double-positive nuclei fraction z-score” value in assay [4] worked out at 0.057.
